Some entries share one result that the patent states for a list of compounds.
Assays:
Format in all cases: in vivo
[1] = system: Heliothis virescens; test: Heliothis virescens (tobacco budworm) egg/artificial diet test; settings: 200 ppm (18 ppm in well), eggs on artificial diet, 4 days; egg mortality, larval mortality, growth regulation
[2] = system: Plutella xylostella; test: Plutella xylostella (diamond back moth) artificial diet test; settings: 200 ppm (18 ppm in well), L2 larvae, 6 days, larval mortality, growth regulation
[3] = system: Thrips tabaci; test: Thrips tabaci (onion thrips) leaf disc test; settings: 200 ppm sprayed on sunflower leaf discs, mixed ages, 7 days; mortality
[4] = system: Spodoptera littoralis; test: Spodoptera littoralis (Egyptian cotton leafworm) leaf disc test; settings: 200 ppm sprayed on cotton leaf discs, L1 larvae, 3 DAT; mortality, feeding behavior, growth regulation
[5] = system: Diabrotica balteata; test: Diabrotica balteata (corn root worm) artificial diet test; settings: 200 ppm (18 ppm in well), L2 larvae, 5 days, larval mortality, growth regulation
[6] = system: Tetranychus urticae; test: Tetranychus urticae (two-spotted spider mite) leaf disc test; settings: 200 ppm sprayed on bean leaf discs, mixed ages, 8 days; egg, larval and adult mortality

Cc1cc(C2=NOC(c3cc(Cl)cc(Cl)c3)(C(F)(F)F)C2=NO)ccc1C(=O)NC1CSC1 (centres unmarked) [B4, 4-{5-(3,5-Dichloro-phenyl)-4-[hydroxyimino]-5-trifluoromethyl-4,5-dihydro-isoxazol-3-yl}-2-methyl-N-thietan-3-yl-benzamide]
control of Heliothis virescens [1]: at least 80%
control of Plutella xylostella [2]: at least 80%
control of Thrips tabaci [3]: at least 80%

CC=C1C(c2ccc(C(=O)NCCCC)c(C)c2)=NOC1(c1cc(Cl)cc(Cl)c1)C(F)(F)F (centres unmarked) [A1, N-butyl-4-[5-(3,5-dichloro-phenyl)-4-ethylidene-5-trifluoro-methyl-4,5-dihydro-isoxazol-3-yl]-2-methyl-benzamide]
control of Spodoptera littoralis [4]: at least 80%
control of Heliothis virescens [1]: at least 80%
control of Plutella xylostella [2]: at least 80%
control of Diabrotica balteata [5]: at least 80%

Cc1cc(C2=NOC(c3cc(Cl)cc(Cl)c3)(C(F)(F)F)C2=O)ccc1C(=O)NC1CSC1 (centres unmarked) [F1, 4-[5-(3 ,5-Dichloro-phenyl)-4-oxo-5-trifluoromethyl-4,5-dihydro-isoxazo 1-3-yl] -2-methyl-N-thietan-3-yl-b enzamide]
control of Tetranychus urticae [6]: at least 80%

CC=C1C(c2ccc(C(=O)NC3CSC3)c(C)c2)=NOC1(c1cc(Cl)cc(Cl)c1)C(F)(F)F (centres unmarked) [A2, 4-[5-(3,5-dichloro-phenyl)-4-ethylidene-5-trifluoromethyl-4,5-dihydro-isoxazol-3-yl]-2-methyl-N-thietan-3-yl-benzamide]
control of Spodoptera littoralis [4]: at least 80%
control of Thrips tabaci [3]: at least 80%
control of Tetranychus urticae [6]: at least 80%

— US20110288131A1, “INSECTICIDAL COMPOUNDS” (SYNGENTA CROP PROTECTION LLC, priority 2009, published 2011)
